Results from the supplement of paper PMC12819154, “High-throughput peptide-centric local stability assay extends protein–ligand identification to membrane proteins, tissues and bacteria” (Nature Structural & Molecular Biology, 2025).
Some of the results follow. Small differences around the control level are noise.

Protein sequences, listed by entry. Tags and fused reporters are not part of them. Lines headed by an entry give the natural chain unless they say otherwise; changes in a name come on top.
UniProt A1L429: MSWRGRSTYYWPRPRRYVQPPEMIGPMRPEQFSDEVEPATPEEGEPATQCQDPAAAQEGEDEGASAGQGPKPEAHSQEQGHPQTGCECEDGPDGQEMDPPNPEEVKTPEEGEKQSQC
UniProt A4D126: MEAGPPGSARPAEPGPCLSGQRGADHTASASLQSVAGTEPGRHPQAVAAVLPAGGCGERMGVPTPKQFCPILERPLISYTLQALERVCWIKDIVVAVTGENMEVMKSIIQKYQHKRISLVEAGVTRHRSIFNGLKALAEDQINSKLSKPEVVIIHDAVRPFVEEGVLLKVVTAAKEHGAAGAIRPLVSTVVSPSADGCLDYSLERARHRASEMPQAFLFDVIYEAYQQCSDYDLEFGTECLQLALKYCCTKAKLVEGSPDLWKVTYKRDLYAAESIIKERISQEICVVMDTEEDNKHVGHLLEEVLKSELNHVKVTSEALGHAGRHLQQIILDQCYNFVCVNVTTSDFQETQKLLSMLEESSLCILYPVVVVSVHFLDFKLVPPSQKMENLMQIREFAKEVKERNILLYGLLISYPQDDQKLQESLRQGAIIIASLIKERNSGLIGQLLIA
UniProt A0MZ66, whole entry: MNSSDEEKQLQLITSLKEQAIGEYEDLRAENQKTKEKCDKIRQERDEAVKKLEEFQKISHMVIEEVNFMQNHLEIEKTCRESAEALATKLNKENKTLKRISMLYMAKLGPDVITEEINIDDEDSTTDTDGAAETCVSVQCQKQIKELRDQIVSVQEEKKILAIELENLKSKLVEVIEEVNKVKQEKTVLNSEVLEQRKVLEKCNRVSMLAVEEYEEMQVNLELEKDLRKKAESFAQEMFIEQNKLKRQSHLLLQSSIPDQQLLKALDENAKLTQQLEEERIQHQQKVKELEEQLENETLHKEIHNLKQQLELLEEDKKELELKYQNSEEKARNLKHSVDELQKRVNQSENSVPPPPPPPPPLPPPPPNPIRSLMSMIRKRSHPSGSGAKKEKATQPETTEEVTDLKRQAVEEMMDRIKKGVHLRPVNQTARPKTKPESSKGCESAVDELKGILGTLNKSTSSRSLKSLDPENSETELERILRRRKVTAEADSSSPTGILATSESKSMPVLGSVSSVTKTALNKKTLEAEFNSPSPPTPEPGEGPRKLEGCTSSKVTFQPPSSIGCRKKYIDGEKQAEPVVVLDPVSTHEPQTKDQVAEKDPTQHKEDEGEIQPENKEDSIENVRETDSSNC
UniProt A6NDB9: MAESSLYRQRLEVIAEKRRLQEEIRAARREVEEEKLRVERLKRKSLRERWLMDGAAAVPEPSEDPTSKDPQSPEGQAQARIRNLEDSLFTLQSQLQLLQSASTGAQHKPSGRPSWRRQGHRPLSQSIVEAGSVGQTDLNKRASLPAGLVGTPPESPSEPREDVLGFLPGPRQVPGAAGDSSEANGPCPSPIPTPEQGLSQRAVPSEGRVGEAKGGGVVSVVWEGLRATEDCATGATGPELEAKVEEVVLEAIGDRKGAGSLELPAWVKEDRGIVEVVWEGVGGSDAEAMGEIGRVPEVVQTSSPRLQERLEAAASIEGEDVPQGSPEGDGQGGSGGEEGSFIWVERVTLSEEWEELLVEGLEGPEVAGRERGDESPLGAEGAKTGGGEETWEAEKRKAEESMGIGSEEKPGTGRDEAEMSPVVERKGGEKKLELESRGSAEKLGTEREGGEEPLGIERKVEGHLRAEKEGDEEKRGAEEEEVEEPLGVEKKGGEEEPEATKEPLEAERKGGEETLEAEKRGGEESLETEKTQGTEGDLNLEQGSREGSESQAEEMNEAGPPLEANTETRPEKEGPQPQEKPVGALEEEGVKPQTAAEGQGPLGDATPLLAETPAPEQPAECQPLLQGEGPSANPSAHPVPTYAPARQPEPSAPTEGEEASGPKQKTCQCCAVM
UniProt A4D1E1: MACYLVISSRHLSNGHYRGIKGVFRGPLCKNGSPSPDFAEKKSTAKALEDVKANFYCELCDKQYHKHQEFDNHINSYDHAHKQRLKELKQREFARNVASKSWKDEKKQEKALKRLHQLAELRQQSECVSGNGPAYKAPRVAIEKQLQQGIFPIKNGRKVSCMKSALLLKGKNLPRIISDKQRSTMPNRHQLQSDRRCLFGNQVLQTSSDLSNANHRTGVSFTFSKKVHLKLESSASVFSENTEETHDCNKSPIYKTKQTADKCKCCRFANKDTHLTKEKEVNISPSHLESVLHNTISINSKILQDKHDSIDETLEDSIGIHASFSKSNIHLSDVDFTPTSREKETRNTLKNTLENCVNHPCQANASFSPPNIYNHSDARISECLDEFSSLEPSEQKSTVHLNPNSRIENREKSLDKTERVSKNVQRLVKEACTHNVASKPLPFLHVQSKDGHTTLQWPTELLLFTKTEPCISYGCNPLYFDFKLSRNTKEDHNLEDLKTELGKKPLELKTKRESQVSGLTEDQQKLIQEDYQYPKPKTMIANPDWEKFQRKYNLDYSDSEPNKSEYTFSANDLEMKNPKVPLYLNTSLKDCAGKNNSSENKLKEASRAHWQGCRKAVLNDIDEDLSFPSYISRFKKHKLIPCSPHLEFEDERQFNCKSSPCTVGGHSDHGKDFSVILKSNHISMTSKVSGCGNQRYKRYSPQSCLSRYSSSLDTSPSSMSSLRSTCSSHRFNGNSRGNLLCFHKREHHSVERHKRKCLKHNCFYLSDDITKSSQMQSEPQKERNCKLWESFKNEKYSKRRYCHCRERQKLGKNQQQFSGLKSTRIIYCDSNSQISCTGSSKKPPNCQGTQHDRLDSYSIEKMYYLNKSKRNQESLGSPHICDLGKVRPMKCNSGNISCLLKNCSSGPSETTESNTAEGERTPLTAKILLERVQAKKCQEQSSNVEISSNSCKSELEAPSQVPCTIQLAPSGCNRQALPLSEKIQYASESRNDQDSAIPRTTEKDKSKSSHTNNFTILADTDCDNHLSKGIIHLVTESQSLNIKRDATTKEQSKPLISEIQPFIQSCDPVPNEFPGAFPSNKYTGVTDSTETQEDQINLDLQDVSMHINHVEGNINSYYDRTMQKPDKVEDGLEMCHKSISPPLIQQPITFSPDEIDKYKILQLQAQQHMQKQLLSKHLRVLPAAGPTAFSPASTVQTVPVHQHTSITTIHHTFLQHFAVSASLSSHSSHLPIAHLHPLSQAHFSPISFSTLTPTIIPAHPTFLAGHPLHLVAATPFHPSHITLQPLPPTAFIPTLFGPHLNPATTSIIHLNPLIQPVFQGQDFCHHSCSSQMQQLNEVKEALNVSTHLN
UniProt A6NED2: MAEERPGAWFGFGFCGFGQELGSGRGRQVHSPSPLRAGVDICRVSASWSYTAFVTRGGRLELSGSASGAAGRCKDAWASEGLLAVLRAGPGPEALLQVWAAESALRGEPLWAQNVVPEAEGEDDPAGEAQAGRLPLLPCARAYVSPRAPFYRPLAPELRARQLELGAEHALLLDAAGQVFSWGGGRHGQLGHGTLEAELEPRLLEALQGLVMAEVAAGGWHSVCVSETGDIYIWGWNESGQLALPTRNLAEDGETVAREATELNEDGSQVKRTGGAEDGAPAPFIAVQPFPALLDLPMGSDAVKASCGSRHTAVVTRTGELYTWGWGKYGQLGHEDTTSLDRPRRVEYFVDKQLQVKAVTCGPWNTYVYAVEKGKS
UniProt A4D1E9: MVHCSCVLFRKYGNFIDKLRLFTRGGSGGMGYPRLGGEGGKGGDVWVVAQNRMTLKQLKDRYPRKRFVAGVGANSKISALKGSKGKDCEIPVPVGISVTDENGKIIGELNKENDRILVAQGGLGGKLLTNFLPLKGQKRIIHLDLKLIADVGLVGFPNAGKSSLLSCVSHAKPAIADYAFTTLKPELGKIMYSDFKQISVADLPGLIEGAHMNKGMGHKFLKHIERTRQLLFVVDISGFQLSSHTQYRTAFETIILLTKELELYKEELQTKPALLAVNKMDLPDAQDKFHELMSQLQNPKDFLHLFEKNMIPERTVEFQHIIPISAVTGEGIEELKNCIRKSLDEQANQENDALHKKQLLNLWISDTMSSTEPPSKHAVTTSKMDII
UniProt A5YKK6, whole entry: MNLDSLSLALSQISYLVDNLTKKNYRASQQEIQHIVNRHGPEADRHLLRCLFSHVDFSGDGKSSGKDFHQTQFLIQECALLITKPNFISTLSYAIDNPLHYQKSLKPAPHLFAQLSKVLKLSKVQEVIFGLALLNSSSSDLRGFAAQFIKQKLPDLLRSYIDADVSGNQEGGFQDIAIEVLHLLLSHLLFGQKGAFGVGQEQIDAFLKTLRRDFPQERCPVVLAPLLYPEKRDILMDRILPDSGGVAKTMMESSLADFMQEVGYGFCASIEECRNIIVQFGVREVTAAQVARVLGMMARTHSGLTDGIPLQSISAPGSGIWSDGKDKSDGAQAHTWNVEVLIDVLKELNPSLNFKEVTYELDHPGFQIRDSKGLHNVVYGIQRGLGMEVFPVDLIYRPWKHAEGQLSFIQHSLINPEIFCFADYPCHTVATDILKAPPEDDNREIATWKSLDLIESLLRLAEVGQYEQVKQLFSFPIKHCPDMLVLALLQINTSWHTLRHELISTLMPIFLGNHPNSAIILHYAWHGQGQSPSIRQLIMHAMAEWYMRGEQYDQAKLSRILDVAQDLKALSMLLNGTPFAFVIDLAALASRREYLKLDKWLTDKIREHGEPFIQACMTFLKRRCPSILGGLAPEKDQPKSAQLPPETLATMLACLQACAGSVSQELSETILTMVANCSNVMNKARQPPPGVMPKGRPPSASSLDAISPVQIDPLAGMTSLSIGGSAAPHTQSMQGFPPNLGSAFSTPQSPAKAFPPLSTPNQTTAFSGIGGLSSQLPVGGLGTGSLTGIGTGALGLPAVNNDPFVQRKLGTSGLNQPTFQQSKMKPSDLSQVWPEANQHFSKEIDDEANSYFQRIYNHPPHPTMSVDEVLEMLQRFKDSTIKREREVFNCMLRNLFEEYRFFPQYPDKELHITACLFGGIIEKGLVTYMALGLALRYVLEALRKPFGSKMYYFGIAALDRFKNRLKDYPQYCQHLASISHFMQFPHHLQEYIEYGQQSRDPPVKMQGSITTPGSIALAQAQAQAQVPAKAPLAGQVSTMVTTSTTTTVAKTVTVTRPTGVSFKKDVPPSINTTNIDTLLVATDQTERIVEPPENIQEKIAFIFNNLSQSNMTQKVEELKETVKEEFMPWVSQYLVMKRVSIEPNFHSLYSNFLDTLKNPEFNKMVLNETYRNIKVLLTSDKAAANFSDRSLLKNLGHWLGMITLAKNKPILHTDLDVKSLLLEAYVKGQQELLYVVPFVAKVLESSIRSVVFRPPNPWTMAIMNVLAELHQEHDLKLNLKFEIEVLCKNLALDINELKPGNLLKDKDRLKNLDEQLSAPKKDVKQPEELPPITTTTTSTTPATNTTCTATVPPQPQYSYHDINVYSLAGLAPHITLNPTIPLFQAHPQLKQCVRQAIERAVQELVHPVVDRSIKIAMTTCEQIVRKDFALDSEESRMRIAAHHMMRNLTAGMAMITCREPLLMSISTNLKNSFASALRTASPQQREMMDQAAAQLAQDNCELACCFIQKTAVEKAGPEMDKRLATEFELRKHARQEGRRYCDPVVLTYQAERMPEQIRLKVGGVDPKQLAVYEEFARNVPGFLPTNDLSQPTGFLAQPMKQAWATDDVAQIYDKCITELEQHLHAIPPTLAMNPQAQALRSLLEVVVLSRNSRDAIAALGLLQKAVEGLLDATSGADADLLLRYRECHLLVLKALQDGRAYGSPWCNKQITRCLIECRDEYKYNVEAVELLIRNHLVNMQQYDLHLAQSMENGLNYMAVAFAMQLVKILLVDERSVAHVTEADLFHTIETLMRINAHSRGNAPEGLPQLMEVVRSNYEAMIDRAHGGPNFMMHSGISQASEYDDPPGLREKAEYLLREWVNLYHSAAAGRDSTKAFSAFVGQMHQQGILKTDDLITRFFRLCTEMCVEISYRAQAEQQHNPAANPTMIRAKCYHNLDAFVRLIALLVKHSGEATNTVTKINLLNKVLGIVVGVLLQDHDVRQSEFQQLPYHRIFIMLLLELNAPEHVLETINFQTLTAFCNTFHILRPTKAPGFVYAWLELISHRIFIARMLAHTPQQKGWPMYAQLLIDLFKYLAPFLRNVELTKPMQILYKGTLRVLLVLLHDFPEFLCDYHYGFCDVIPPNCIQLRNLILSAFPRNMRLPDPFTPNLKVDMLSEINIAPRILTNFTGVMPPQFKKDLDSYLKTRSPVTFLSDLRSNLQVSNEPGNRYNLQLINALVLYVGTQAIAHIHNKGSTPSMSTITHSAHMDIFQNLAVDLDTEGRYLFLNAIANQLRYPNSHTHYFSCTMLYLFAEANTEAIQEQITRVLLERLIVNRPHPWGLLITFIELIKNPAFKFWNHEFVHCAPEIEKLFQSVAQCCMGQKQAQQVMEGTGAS

Compound: CN[C@@H]1C[C@H]2O[C@@](C)([C@@H]1OC)n1c3ccccc3c3c4c(c5c6ccccc6n2c5c31)C(=O)NC4 [staurosporine]
Assay: log2 fold change of tryptic peptide abundance, ligand vs vehicle (limited proteolysis) (log2 ratio); higher = more trypsin-susceptible (destabilized)
Conditions: ligand concentration: 20 uM; sample: K562 cleared lysate; digestion: 4 min, 22 C (HT-PELSA RT4min, Orbitrap Astral)

Row | Target | log2 fold change
1 | A0A590UK10 (peptide sequence: ALQEELQFSSK, peptide start residue: 476) | -0.655
2 | UniProt A1L429 (peptide sequence: STYYWPR, peptide start residue: 7) | -0.0478
3 | CRPPA (peptide sequence: ALAEDQINSK, peptide start residue: 136) (UniProt A4D126) | 0.218
4 | TARSL2 (peptide sequence: EILLEMFK, peptide start residue: 303) (UniProt A2RTX5) | 0.312
5 | A0A8I5KQN6 (peptide sequence: EQEEKIR, peptide start residue: 268) | 0.303
6 | UniProt A0MZ66 (peptide sequence: ISHMVIEEVNFMQNHLEIEK, peptide start residue: 58) | 0.233
7 | BDP1 (peptide sequence: QQVEAAFQSR, peptide start residue: 2438) (UniProt A6H8Y1) | -0.499
8 | A0A2Z4LIS9 (peptide sequence: AGSAMAIGGGGGSR, peptide start residue: 158), A0A2Z4LIS9 | -0.242
9 | PALM3 (peptide sequence: GGGVVSVVWEGLR, peptide start residue: 214) (UniProt A6NDB9) | 0.414
10 | A0A2R8Y4L2 (peptide sequence: GFAFVTFDDHDSVDKIVIQK, peptide start residue: 147), A0A2R8Y4L2 | 0.287
11 | A0A3B3IS91 (peptide sequence: AAAAQPIGHPDALER, peptide start residue: 86), A0A3B3IS91 | -0.112
12 | A0A494C030 (peptide sequence: RPADTGPVWVPR, peptide start residue: 165) | -0.115
13 | UniProt A4D1E1 (peptide sequence: HQEFDNHINSYDHAHK, peptide start residue: 148) | -0.507
14 | RCCD1 (peptide sequence: LELSGSASGAAGR, peptide start residue: 60) (UniProt A6NED2) | -0.308
15 | CCDC66 (peptide sequence: TNELFQTMQR, peptide start residue: 529) (UniProt A2RUB6) | 0.475
16 | A0AV96 (peptide sequence: GFAFVEYESHR, peptide start residue: 195) | -0.152
17 | GTPBP10 (peptide sequence: QISVADLPGLIEGAHMNK, peptide start residue: 197) (UniProt A4D1E9) | 0.311
18 | A0A1B0GUS4 (peptide sequence: IYHPNIDEK, peptide start residue: 74), A0A1B0GUS4 | 0.134
19 | CNOT1 (peptide sequence: YRECHLLVLK, peptide start residue: 1684) (UniProt A5YKK6) | -0.142

A different layout for part of the listing above:
Row,Target,log2 fold change
15,"CCDC66 (peptide sequence: TNELFQTMQR, peptide start residue: 529) (UniProt A2RUB6)",0.475
16,"A0AV96 (peptide sequence: GFAFVEYESHR, peptide start residue: 195)",-0.152
